Laboratory results taken from article PMC10966517.
No constants are given. Whether binding was seen depends on the method and setting. For some assays here: Binding seen in cells or lysates may run through a third protein. Some binding calls cover weakened binding; strength is not graded here. Values belong to the molecule of their own block, whether it stands above or below them.

Amino acid sequences for entries named in this document (tags omitted). A change or cut given only in a name is not applied to a line headed by its entry. Chains listed by the source or under a name are the forms on record and can include a tag or linker.
UniProt P31749: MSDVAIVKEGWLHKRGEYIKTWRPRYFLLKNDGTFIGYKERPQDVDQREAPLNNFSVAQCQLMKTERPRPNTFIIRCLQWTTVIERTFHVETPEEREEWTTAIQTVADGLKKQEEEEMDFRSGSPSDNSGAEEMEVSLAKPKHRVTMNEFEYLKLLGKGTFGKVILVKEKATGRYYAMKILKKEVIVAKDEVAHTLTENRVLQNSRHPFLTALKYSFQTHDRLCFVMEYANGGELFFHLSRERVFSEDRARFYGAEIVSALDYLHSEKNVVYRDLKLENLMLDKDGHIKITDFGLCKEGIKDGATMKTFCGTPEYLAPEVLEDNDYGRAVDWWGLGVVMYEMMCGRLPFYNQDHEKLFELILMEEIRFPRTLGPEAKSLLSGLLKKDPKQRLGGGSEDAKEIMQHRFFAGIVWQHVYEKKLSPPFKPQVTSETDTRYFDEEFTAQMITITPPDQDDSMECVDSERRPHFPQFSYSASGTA
STK24 (Q9Y6E0-2, form named): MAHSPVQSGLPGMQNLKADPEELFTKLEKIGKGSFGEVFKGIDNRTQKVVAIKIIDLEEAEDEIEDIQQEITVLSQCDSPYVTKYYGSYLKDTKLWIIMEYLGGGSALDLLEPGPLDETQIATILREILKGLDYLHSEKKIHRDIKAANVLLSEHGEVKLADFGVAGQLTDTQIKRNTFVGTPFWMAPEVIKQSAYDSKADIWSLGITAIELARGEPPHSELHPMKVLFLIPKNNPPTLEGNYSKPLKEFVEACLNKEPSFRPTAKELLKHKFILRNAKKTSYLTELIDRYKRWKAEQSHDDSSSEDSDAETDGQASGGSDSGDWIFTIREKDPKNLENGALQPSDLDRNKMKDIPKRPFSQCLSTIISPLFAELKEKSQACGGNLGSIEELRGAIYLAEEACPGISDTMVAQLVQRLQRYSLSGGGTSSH
UniProt P31751: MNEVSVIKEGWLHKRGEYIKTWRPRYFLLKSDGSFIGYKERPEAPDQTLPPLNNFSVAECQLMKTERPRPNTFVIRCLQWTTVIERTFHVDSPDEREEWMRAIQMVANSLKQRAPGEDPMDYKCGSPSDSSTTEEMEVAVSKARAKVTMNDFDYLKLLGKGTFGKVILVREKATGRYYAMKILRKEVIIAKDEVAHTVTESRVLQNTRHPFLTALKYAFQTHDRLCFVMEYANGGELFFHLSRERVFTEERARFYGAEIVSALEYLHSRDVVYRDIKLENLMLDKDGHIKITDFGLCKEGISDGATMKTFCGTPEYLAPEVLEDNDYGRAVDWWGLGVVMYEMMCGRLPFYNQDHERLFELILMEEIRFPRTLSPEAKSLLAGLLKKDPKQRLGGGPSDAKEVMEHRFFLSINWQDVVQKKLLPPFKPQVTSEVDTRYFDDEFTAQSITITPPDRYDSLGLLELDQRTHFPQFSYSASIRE
UniProt Q9Y243: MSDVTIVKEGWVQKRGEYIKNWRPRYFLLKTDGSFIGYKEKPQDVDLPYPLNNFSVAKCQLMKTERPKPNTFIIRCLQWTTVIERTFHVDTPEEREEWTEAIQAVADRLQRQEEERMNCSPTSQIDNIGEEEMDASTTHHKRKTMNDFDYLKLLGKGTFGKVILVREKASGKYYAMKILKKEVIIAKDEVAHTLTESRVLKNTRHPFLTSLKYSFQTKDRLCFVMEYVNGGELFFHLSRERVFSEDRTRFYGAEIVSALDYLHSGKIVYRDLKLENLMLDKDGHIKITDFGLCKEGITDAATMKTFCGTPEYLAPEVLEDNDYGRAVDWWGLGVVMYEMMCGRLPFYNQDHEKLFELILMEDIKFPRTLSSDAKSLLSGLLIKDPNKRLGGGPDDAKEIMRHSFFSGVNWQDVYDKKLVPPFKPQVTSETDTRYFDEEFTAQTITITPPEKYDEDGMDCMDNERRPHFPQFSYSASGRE

Assays:
HA‐AKT1 = HA‐AKT1 (UniProt P31749); experiment: pull-down; 1 µg HA-AKT1 (or HA-EGFP) with 2 µL pre-cleared HA beads in 500 µL reaction medium, then 1 µg Flag-STK24 recombinant protein, 4 °C for 4 h with gentle rotation; immunoblot with anti-HA or anti-Flag; both purified
STK24 = STK24 (UniProt Q9Y6E0); experiment: co-IP; HEK293T cells expressing the proteins; anti-Flag immunoprecipitation and immunoblot (Figure 5E); co-IP with AKT1, AKT2 and AKT3 in HEK293T cells (Figure S5L)

binding (STK24): binds
Molecule: AKT1 (from UniProt P31749 1-480) (enzyme)

binding (STK24): binds
B1: TAK1 (enzyme, UniProt O43318 1-606)
chain: MSTASAASSSSSSSAGEMIEAPSQVLNFEEIDYKEIEVEEVVGRGAFGVVCKAKWRAKDVAIKQIESESERKAFIVELRQLSRVNHPNIVKLYGACLNPVCLVMEYAEGGSLYNVLHGAEPLPYYTAAHAMSWCLQCSQGVAYLHSMQPKALIHRDLKPPNLLLVAGGTVLKICDFGTACDIQTHMTNNKGSAAWMAPEVFEGSNYSEKCDVFSWGIILWEVITRRKPFDEIGGPAFRIMWAVHNGTRPPLIKNLPKPIESLMTRCWSKDPSQRPSMEEIVKIMTHLMRYFPGADEPLQYPCQYSDEGQSNSATSTGSFMDIASTNTSNKSDTNMEQVPATNDTIKRLESKLLKNQAKQQSESGRLSLGASRGSSVESLPPTSEGKRMSADMSEIEARIAATTAYSKPKRGHRKTASFGNILDVPEIVISGNGQPRRRSIQDLTVTGTEPGQVSSRSSSPSVRMITTSGPTSEKPTRSHPWTPDDSTDTNGSDNSIPMAYLTLDHQLQPLAPCPNSKESMAVFEQHCKMAQEYMKVQTEIALLLQRKQELVAELDQDEKDQQNTSRLVQEHKKLLDENKSLSTYYQQCKKQLEVIRSQQQKRQGTS

The next lines start with the molecule.

Molecule: Flag‐STK24 recombinant protein (from UniProt Q9Y6E0-2 1-431) (enzyme)
binding (HA‐AKT1): binds

Molecule: AKT2 (from UniProt P31751 1-481) (enzyme)
binding (STK24): binds weakly

Molecule: AKT3 (from UniProt Q9Y243 1-479) (enzyme)
binding (STK24): no binding
